Data published in article PMC10183829, “Shuffled ATG8 interacting motifs form an ancestral bridge between UFMylation and autophagy” (The EMBO Journal, 2023).
No constants are given. Whether binding was seen depends on the method and setting. For some assays here: In cells and extracts the contact can be indirect. Some binding calls cover weakened binding; strength is not graded here. For some assays here: Sequences can lack the tags named with a protein. Blank lines part the entries; values can stand above or below the binder they belong to.

The chains behind the UniProt entries cited, without tags or fusion partners. Where a name states a change or a piece, a line headed by the entry shows the natural chain unless it says otherwise. Residues count along the entry.
UniProt O95166: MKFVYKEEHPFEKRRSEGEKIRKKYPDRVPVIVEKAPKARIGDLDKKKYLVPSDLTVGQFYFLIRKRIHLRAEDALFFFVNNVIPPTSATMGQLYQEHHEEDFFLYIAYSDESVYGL
GABARAP (purified): residues 3-116 of O95166
UniProt P61960: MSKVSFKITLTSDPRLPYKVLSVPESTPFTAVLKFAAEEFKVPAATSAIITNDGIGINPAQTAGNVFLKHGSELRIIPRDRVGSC

What was measured:
[1] = biological target: GABARAP (purified) (human) (UniProt O95166); assay: NMR titration; unlabeled protein or peptide (50-300 μM) added to 100 μM 15N-labeled protein; 1H-15N HSQC, 25°C, 50 mM sodium phosphate pH 7.0, 100 mM NaCl, 10% D2O; both purified
[2] = biological target: T1, ATG8A (purified) (Arabidopsis thaliana) (UniProt Q8LEM4); assay: as above
T1 sequence: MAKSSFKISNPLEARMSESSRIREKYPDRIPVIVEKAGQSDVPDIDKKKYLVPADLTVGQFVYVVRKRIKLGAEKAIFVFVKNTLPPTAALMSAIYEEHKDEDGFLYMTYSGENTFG

GST-HsUFM1 (human) = GST-HsUFM1 (human) (UniProt P61960); assay: microscopy-based on-bead protein-protein interaction assay; both purified
GST-GABARAP (human) = GST-GABARAP (human) (UniProt O95166); assay: pull-down; as a1, with the cAIM peptide added as competitor (200 μM final in Fig 3B)
[3] = biological target: GABARAP (purified) (human) (UniProt O95166); assay: ITC; 25°C, 50 mM sodium phosphate pH 7.0, 100 mM NaCl; GABARAP or HsUFM1 in the cell, HsC53 variant in the syringe; global analysis with a hetero-association model A + B; both purified

binding [1]: binds
B1: HsC53 IDR (263-316) (domain or fragment, UniProt Q96JB5 263-316)
chain: AEDAIDWGDFGVEAVSEGTDSGISAEAAGIDWGIFPESDSKDPGGDGIDWGDDA

binding [2]: binds
binding (GST-HsUFM1 (human)): binds
Binder: GPLHDDNEWNISVVDD [AtUBA5 LIR peptide]

binding (GST-GABARAP (human)): binds
B2: MBP-HsC53 (protein, UniProt Q96JB5 1-506)
chain: MEDHQHVPIDIQTSKLLDWLVDRRHCSLKWQSLVLTIREKINAAIQDMPESEEIAQLLSGSYIHYFHCLRILDLLKGTEASTKNIFGRYSSQRMKDWQEIIALYEKDNTYLVELSSLLVRNVNYEIPSLKKQIAKCQQLQQEYSRKEEECQAGAAEMREQFYHSCKQYGITGENVRGELLALVKDLPSQLAEIGAAAQQSLGEAIDVYQASVGFVCESPTEQVLPMLRFVQKRGNSTVYEWRTGTEPSVVERPHLEELPEQVAEDAIDWGDFGVEAVSEGTDSGISAEAAGIDWGIFPESDSKDPGGDGIDWGDDAVALQITVLEAGTQAPEGVARGPDALTLLEYTETRNQFLDELMELEIFLAQRAVELSEEADVLSVSQFQLAPAILQGQTKEKMVTMVSVLEDLIGKLTSLQLQHLFMILASPRYVDRVTEFLQQKLKQSQLLALKKELMVQKQQEALEEQAALEPKLDLLLEKTKELQKLIEADISKRYSGRPVNLMGTSL

binding [3]: binds
B3: HsC53 wt (purified) (protein, UniProt Q96JB5 1-506)
chain: B2 chain
